# Measured values published in publication PMC8718266.
# Sequences of proteins named here, by UniProt entry; tags and fusion partners are left off.
# UniProt Q60843: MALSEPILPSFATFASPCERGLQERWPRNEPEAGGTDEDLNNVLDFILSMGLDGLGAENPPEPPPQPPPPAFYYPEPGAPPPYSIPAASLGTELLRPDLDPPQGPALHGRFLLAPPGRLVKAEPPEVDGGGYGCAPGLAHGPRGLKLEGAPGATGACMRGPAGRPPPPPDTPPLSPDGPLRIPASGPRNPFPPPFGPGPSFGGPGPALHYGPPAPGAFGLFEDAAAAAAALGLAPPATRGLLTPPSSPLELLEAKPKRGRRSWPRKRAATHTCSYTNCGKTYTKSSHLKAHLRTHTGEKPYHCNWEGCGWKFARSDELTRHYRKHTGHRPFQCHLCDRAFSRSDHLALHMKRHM
# UniProt Q9WTX6: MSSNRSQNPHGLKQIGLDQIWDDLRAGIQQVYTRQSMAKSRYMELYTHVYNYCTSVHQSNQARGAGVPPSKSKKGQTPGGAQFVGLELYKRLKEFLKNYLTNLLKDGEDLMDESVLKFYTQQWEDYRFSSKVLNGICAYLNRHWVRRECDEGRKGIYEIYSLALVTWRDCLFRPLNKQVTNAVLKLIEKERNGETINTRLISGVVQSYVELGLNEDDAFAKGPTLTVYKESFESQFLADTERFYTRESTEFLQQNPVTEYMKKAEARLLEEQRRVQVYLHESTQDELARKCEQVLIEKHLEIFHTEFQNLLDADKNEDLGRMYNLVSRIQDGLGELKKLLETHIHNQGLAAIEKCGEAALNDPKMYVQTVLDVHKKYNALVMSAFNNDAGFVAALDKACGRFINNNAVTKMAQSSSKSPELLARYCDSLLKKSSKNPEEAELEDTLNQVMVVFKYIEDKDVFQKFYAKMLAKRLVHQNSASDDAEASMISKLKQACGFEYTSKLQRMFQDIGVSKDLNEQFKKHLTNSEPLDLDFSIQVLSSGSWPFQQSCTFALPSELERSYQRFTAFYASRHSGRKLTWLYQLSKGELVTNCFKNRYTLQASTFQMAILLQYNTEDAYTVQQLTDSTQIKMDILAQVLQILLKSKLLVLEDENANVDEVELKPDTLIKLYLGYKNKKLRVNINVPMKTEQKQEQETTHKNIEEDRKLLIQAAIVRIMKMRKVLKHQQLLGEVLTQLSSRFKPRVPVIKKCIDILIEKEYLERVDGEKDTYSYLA
# UniProt Q8VBV4: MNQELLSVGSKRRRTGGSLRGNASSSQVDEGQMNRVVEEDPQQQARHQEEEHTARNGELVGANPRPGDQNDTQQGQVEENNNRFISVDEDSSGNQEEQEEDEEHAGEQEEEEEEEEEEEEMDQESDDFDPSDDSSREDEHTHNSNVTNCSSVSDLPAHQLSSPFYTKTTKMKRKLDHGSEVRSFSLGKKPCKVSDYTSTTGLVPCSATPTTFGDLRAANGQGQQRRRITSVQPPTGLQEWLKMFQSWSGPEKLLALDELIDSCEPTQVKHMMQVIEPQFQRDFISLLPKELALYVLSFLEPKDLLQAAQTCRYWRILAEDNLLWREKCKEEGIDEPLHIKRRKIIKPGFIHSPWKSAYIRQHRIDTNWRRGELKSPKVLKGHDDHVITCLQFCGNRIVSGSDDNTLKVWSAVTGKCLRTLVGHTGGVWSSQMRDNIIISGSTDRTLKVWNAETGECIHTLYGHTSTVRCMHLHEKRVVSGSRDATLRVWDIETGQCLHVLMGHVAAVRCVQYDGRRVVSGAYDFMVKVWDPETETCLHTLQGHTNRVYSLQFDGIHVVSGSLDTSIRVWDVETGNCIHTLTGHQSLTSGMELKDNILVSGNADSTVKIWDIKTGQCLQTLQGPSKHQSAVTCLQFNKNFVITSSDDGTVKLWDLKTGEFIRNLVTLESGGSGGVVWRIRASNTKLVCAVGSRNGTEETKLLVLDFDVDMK
# Molecular target: 3xFLAG-KLF2 wild-type (UniProt Q60843)
# Assay: affinity purification with mass spectrometry; wild-type or Klf2 delta/delta mESCs transfected with 3xFLAG-KLF2 WT or 4A; FLAG IP; interacting proteins identified by mass spectrometry and ranked by spectral counting (WT against 4A)
row,binding,Substance
1,binds,"CUL1 (endogenous, mESCs) (from UniProt Q9WTX6 1-776)"
2,binds,"FBW7 (endogenous, mESCs) (from UniProt Q8VBV4 1-710)"

# Results are given in words; binding and its absence hold for the method and conditions named. In cells and extracts the contact can be indirect. A yes stands for co-enrichment or nearness to the bait. Other partners may have been found.
